Measured data: PubChem BioAssay AID652243 (Drosophila RNAi Screening Center, 2013)
The deposit covers about 24,000 reagents; shown is a random part of those that have a named target and a result. Of all reagents, 246 (1%) are marked active. 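Plates not normalised; calls are printed but the firefly/Renilla ratio behind them is not deposited; fold cut for lowering reported inconsistently.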 The raw values are shown without normalisation. Reagent sequences are not shown. Not stated in the record: the amount of reagent.

Aim: 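Knock-downs that decrease or increase androgen receptor reporter signal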 (primary screen)
Cells: Drosophila S2R+ cells
Reagent: long dsRNA against Drosophila genes
Timing: 72 h (48 h, then 24 h hormone)
Challenge: synthetic androgen R1881 at 10 nM for 24 h
Measured: 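Per-well raw luminescence of the androgen-driven firefly reporter and of the Renilla control, two replicates each, without normalisation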
Scale: firefly reporter light: higher = more light from androgen-responsive reporter; Renilla control light: higher = more constitutive control signal (cell number, transfection)
Call rule: 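Hit when the log firefly-to-Renilla ratio dropped or increased by a fixed fold versus the mean of GFP or LacZ controls across duplicate plates; lowering cut given as 1.5 and as 3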
Calls: active = hit: reporter lowered or raised; inactive = no hit

target	dsRNA	firefly reporter light, replicate 1	firefly reporter light, replicate 2	Renilla control light, replicate 1	Renilla control light, replicate 2	outcome
CG31473	DRSC15443	1.39e5	1.03e5	2.90e6	1.89e6	inactive
CG31473	DRSC29111	5.42e5	7.92e5	1.24e6	1.43e6	inactive
Frq1	DRSC19961	5.24e5	7.60e5	3.32e6	4.10e6	inactive
Frq1	DRSC25439	9.90e5	7.44e5	1.05e6	1.17e6	inactive
CG2875	DRSC18231	1.14e5	69567	1.03e6	5.76e5	inactive
grau	DRSC04691	1.29e5	1.11e5	1.30e6	8.67e5	inactive
grau	DRSC27330	6.19e5	5.18e5	7.87e5	7.87e5	inactive
crq	DRSC00810	1.17e5	1.02e5	6.56e5	7.84e5	inactive
Dif	DRSC03316	2.14e5	3.39e5	2.13e6	2.65e6	inactive
CG13048	DRSC09929	1.62e5	1.20e5	2.17e6	1.64e6	inactive
CG13048	DRSC26938	4.11e5	3.92e5	7.37e5	5.43e5	inactive
CG12343	DRSC06135	2.40e5	1.86e5	1.64e6	1.32e6	inactive
CG8300	DRSC23231	7.39e5	8.35e5	1.79e6	1.72e6	inactive
CG8300	DRSC29869	7.25e5	4.12e5	1.33e6	1.17e6	inactive
unc-119	DRSC18846	3.45e5	4.11e5	2.47e6	2.00e6	inactive
unc-119	DRSC39157	4.01e5	4.81e5	1.15e6	1.31e6	inactive
CG8851	DRSC00718	1.95e5	1.27e5	1.07e6	5.54e5	inactive
CG8851	DRSC29343	3.36e5	2.88e5	1.30e6	1.30e6	inactive
Osi7	DRSC12176	1.10e5	95812	2.64e6	2.22e6	inactive
Osi7	DRSC27146	2.84e5	2.60e5	5.27e5	4.91e5	inactive
CG17917	DRSC12570	80820	84923	1.70e6	1.56e6	inactive
IntS4	DRSC17810	2.61e5	2.34e5	1.04e6	1.10e6	inactive
Dup99B	DRSC22877	4.02e5	6.20e5	9.75e5	1.45e6	inactive
Dup99B	DRSC29633	3.91e5	4.59e5	1.19e6	1.19e6	inactive

The list goes on (5 carried over from the part before).
target	dsRNA	firefly reporter light, replicate 1	firefly reporter light, replicate 2	Renilla control light, replicate 1	Renilla control light, replicate 2	outcome
Osi7	DRSC27146	2.84e5	2.60e5	5.27e5	4.91e5	inactive
CG17917	DRSC12570	80820	84923	1.70e6	1.56e6	inactive
IntS4	DRSC17810	2.61e5	2.34e5	1.04e6	1.10e6	inactive
Dup99B	DRSC22877	4.02e5	6.20e5	9.75e5	1.45e6	inactive
Dup99B	DRSC29633	3.91e5	4.59e5	1.19e6	1.19e6	inactive
CG16972	DRSC02550	6.21e5	8.57e5	1.53e6	2.26e6	inactive
RpL39	DRSC04651	3.30e5	3.26e5	1.53e6	1.73e6	inactive
btd	DRSC18747	2.99e5	3.66e5	2.90e6	2.49e6	inactive
btd	DRSC29060	6.21e5	5.20e5	1.43e6	1.36e6	inactive
CG14658	DRSC12244		277			inactive
Trm7-32	DRSC15741	62487	1.47e5	6.20e5	7.22e5	inactive
dysc	DRSC10273	2.97e5	2.86e5	2.14e6	2.51e6	inactive
dysc	DRSC11040	3.65e5	2.78e5	4.09e6	3.28e6	inactive
dysc	DRSC22334	9.06e5	8.23e5	2.66e6	2.34e6	inactive
dysc	DRSC22824	4.82e5	8.08e5	9.15e5	1.22e6	inactive
dysc	DRSC23128	4.28e5	7.52e5	1.42e6	1.55e6	inactive
dysc	DRSC26188	4.87e5	5.55e5	6.88e5	7.40e5	inactive
Vago	DRSC19833	5.75e5	6.63e5	3.59e6	4.12e6	inactive
Vago	DRSC26320	3.31e5	3.29e5	6.92e5	6.63e5	inactive
Muc18B	DRSC21644	8.93e5	6.24e5	1.40e6	1.13e6	inactive
Muc18B	DRSC28889	2.88e5	4.37e5	7.99e5	8.42e5	inactive
